Assay [1] has as its target T1, MuSK-Flag (mouse muscle specific kinase) (mouse) (UniProt Q61006).
T1 sequence: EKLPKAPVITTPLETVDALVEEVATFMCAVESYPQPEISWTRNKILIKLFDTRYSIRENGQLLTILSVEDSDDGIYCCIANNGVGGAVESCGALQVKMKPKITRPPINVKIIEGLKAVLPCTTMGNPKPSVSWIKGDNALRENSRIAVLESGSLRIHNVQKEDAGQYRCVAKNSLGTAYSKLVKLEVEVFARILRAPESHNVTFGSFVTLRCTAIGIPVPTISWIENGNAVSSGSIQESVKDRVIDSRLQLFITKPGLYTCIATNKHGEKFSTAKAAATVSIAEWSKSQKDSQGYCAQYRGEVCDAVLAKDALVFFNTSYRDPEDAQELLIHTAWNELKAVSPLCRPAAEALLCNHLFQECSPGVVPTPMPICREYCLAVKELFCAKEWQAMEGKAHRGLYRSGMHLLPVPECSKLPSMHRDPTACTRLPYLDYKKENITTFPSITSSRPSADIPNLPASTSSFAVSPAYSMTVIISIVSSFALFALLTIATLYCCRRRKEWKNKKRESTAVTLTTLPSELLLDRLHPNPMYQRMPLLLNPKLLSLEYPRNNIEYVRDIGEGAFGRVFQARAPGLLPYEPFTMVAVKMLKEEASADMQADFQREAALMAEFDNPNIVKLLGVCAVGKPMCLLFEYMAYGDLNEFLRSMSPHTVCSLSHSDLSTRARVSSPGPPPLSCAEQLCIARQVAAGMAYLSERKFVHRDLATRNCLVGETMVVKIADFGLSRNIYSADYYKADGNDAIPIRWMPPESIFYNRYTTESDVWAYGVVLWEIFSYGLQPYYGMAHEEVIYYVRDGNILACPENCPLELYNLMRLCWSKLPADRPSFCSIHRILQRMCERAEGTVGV
Put plainly: co-IP; HEK293T cells co-transfected 24 h with MuSK-Flag and wild-type or mutant LRP4-HA (2 µg of each plasmid); immunoprecipitation with anti-HA or anti-Flag, western blot with anti-Flag or anti-HA. (A western blot detects proteins with antibodies after separation by electrophoresis.)

By UniProt entry, the sequences of proteins in these tests, tags left out. Where a name states a change or a piece, a line headed by the entry shows the natural chain unless it says otherwise. Chains listed by the source or under a name are the forms on record and can include a tag or linker. Residues count along the entry.
LRP4-HA, wild-type (full-length human LRP4), expressed on the surface of COS7 cells (O75096, residues 21-1905): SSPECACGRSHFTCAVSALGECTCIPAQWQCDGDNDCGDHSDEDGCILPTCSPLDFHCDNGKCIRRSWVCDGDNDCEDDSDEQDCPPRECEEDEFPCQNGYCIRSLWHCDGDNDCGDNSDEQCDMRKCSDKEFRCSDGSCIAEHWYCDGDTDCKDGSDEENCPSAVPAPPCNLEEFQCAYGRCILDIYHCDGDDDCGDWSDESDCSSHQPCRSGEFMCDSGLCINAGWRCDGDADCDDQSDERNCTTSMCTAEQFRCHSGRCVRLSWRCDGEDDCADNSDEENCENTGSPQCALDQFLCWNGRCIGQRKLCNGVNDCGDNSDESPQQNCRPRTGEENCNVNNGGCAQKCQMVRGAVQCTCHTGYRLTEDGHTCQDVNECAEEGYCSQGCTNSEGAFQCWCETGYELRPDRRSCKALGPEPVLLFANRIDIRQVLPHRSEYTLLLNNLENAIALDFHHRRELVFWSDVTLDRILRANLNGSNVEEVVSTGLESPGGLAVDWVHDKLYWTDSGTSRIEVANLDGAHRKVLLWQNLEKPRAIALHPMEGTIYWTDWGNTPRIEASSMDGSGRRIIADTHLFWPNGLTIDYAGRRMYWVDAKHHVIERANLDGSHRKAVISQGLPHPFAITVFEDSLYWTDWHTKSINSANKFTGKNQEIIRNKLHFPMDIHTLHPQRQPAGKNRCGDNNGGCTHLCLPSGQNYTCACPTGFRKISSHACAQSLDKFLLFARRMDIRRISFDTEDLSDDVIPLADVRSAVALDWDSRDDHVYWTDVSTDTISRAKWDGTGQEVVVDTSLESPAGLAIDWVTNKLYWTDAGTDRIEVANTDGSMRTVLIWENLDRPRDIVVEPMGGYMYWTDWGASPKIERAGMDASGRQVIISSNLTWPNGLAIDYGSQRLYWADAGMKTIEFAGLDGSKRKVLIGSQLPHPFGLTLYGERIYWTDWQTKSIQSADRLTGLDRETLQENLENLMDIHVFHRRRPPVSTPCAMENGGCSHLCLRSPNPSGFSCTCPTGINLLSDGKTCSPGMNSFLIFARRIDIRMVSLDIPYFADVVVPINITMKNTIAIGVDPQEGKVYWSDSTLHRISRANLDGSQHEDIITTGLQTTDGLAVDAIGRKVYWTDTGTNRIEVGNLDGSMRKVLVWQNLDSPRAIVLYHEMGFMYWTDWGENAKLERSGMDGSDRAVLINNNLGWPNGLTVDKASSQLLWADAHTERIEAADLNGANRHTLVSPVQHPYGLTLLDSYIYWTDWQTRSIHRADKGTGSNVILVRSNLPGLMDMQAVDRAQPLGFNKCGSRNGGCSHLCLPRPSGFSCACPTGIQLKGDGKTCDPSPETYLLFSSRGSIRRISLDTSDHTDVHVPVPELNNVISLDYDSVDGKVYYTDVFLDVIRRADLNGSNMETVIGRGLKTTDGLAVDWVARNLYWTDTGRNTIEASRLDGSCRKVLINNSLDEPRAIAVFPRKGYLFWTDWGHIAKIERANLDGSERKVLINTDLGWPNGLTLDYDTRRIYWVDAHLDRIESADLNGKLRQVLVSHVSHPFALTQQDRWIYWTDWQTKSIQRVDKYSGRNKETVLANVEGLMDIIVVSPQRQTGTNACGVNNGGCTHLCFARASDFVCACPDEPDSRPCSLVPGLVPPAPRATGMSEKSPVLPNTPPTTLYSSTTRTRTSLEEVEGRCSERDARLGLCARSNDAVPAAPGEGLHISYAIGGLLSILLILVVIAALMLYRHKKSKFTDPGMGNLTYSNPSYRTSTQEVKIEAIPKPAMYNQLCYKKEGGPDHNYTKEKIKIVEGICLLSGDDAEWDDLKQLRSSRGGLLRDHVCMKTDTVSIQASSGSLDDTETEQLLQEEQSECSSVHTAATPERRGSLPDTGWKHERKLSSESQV
LRP4-HA mutant p.Tyr607Cys (c.1820A > G; LRP4-Mut), expressed in HEK293T cells (O75096, form named): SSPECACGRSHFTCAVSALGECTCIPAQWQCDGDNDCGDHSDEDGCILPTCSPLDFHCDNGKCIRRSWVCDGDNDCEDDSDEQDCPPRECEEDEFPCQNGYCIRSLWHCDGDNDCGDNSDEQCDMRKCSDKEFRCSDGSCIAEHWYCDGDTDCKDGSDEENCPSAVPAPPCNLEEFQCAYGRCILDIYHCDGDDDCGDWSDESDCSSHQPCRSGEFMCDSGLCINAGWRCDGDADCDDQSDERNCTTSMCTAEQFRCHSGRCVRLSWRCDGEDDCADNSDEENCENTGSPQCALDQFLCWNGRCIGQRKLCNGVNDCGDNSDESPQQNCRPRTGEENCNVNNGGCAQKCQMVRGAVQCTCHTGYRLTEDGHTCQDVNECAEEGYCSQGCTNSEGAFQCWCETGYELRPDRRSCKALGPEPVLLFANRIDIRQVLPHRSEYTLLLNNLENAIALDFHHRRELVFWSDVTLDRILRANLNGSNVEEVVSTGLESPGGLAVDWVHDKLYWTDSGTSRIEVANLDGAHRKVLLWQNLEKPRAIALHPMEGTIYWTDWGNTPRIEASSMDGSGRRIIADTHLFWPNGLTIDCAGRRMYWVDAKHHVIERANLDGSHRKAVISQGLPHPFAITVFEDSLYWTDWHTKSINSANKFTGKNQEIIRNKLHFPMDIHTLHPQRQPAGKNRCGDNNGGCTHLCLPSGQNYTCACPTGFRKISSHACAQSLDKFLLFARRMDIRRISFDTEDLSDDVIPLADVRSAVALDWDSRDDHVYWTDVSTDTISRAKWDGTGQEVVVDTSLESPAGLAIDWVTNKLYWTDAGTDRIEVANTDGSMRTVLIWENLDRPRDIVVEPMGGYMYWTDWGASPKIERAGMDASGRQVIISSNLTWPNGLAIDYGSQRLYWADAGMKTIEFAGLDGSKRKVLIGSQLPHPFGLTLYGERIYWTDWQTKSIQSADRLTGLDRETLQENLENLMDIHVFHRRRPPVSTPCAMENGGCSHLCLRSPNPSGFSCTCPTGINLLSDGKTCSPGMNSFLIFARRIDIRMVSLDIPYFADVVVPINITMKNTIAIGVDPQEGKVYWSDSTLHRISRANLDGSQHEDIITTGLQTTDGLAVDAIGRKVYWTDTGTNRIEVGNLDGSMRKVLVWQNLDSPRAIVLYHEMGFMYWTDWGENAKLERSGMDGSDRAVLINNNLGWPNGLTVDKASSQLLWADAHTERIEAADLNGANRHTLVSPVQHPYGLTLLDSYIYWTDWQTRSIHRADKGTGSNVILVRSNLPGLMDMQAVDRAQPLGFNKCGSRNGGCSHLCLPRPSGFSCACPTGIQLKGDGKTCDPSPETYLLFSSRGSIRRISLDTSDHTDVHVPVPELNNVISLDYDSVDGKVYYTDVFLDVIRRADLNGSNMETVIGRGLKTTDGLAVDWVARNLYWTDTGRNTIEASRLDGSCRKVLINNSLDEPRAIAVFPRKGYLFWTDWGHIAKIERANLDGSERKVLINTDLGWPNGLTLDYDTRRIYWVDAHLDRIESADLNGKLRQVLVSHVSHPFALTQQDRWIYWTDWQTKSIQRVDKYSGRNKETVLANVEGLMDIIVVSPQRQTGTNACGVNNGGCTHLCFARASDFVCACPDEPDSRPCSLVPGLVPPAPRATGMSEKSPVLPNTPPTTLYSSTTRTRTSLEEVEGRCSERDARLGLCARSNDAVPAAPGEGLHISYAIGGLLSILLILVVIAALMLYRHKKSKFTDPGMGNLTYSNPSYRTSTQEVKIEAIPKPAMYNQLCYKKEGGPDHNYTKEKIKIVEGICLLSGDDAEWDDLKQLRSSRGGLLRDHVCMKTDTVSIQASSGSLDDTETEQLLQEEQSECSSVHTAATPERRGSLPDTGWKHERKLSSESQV

In assay [2] the target is LRP4-HA, wild-type (full-length human LRP4), expressed on the surface of COS7 cells (human) (UniProt O75096). Put plainly: co-IP; co-culture immunoprecipitation: LRP4-HA on the surface of COS7 cells and Wnt11-Myc secreted by HEK293T cells, 24 h of co-culture, immunoprecipitation of LRP4-HA, western blot with anti-HA and anti-Myc; N = 3.

These are yes or no findings as the source states them, for the method shown. In cells and extracts the contact can be indirect. Some binding calls cover weakened binding; strength is not graded here. Tags and fused reporters may be left off the sequences shown.

Turning to “LRP4-HA mutant p.Tyr607Cys (c.1820A > G; LRP4-Mut), expressed in HEK293T cells (from UniProt O75096 21-1905) (receptor)”, the binding result in assay [1] was “binds”.

In the case of “LRP4-HA, wild-type (full-length human LRP4, LDL receptor related protein 4), expressed in HEK293T cells (from UniProt O75096 21-1905)”, the binding entry in assay [1] is “binds”.

B1: Wnt11-Myc (mouse Wnt11) (ligand, UniProt P48615 25-354)
chain: IKWLALSKTPAALALNQTQHCKQLEGLVSAQVQLCRSNLELMRTIVHAARGAMKACRRAFADMRWNCSSIELAPNYLLDLERGTRESAFVYALSAATISHTIARACTSGDLPGCSCGPVPGEPPGPGNRWGGCADNLSYGLLMGAKFSDAPMKVKKTGSQANKLMRLHNSEVGRQALRASLETKCKCHGVSGSCSIRTCWKGLQELQDVAADLKTRYLSATKVVHRPMGTRKHLVPKDLDIRPVKDSELVYLQSSPDFCMKNEKVGSHGTQDRQCNKTSNGSDSCDLMCCGRGYNPYTDRVVERCHCKYHWCCYVTCRRCERTVERYVCK
As for B1, in assay [2], the binding result is listed as “binds”.

For the origin of these results see article PMC10462681.
